Out of some 53,000 sequences screened, about 3,700 (7%) were called active.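 How the source made its calls: active means gene knockdowns whose robust z-score for IL-1 alpha signal is at least 2 or at most -2, so actives lie on both sides; inactive means the rest.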 The list shows a part of the results.
Assay: Components of the Cytosolic LPS Sensing Pathway: Gene Identification via Genome-wide siRNA Screen;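 further: robust z of the log signal after scaling to non-targeting control siRNA wells of the plate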
Details: RAW264.7 macrophages, IL-1a HTRF, actives lie on both sides, screened at 100 nM (by protocol), cells primed 5 h with Pam3CSK4 first
Summary of the method: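 Three distinct siRNAs per gene were tested singly at 100 nM in RAW264.7 macrophages. Following Pam3CSK4 priming and 24 hour LipidA transfection, IL-1a secretion was read by HTRF.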

Sequence | z-score
GUUCUUCUCAUCUUCCGCUTT against Olfr1506 | inactive: 0.535
GCUUGUCUAGAAACACCAUTT against Lrfn3 | inactive: -0.189
GGACUCCCUUCUAGGUGAATT against Mcm7 | inactive: 1.12
GGGAUGAUUUUGAGAUUUUTT against Dmpk | active: 2.74
GGUUCUCAGAGCUUGUAGATT against Sned1 | inactive: -0.442
GGAACAGCAUGCUUACAUUTT against Ugt1a6b | inactive: 1.25
GGAUAGGAUUCGAUGUCGUTT against Ntpcr | inactive: -1.36
CCUCGAAAAUUUGAUACCGTT against Alkbh8 | inactive: 1.81
GGAGGAGGAAGAAAUACCGTT against Gspt1 | inactive: -0.852
GGAUAACCUUGAAUUUCUGTT against Il5 | inactive: 0.62
GGAAGUUUGUUCAUCCCACTT against Reep1 | inactive: -0.893
CCCACCUUCCAAAAGGAUCTT against 5031434C07Rik | inactive: -0.882
GGAAGAAGCCACCAUGUACTT against Pbx4 | inactive: -1.75
GCAAGCUAAAGGUACAGAATT against Ncoa6 | inactive: -0.84
GCUAAUCGGUAUUGAUGAUTT against Dab2 | inactive: -0.816
CCACCUGUACACCUAGACUTT against Pex12 | inactive: -1.67
GGUGAAGAUUGACAAGAAATT against Spout1 | inactive: 0.254
GGUGAUAAAGCUAUGUAUUTT against Ccn2 | inactive: 0.147
GCACAUGGGAGACUAUGAATT against Necab2 | inactive: -1.14
AAGCCCAUAUACUGAAGGUTT against Klk1b22 | inactive: -0.725
CGGUCAUUUGAAGUAGGAATT against Pwwp3a | inactive: 0.76
GCAUGGACAAAUGUCCCUGTT against Lce1f | inactive: -0.24
GGUCAUGGGACAGCAAAUGTT against Tmco6 | inactive: -1.67

Sequence | z-score
GGCCAAAGUACUUUGUUCCTT against Pdpr | active: 3.63
GGAUGACCGUGCUAGAAAUTT against Klra2 | inactive: -0.657
CGUGGUUCCCAUCAGAAAGTT against Gtsf1l | inactive: 0.733
GCCUGCCAACCAGCGUAAUTT against Pard6a | inactive: 1.24
GGAGAUGGUGCCAGAGAAGTT against Cfc1 | inactive: 1.06
GGAAUGAGGGUAAUGAAUATT against Plin3 | inactive: -1.74
CCUGGAACUUGUCUUUUUUTT against Olfr1388 | inactive: 1.4
GGGACACAUUUAAAAAAACTT against Dennd2a | inactive: -0.874
CCAUCAUUGUUCUUGCAAGTT against Olfr1387 | inactive: -0.0905
GGACCUCUUCUCUGUCUUUTT against Ubl7 | inactive: 0.137
GCUAUUGGAUGAGCGAUUGTT against Crlf3 | inactive: 0.422
CGGUUAUCUAGACUUAAAATT against Zfp760 | inactive: 0.697
GGCUUCUUUUGCUACACCUTT against Olfr729 | inactive: -0.0147
GCAUGCAUGGUACAAUUUUTT against Olfr1166 | inactive: 1.45
GGUAGUGGACAGUUUUGACTT against Mrpl55 | inactive: 0.675
GGCCUUUAACAUCCGCCUATT against Ddb1 | inactive: -1.49
CCGAAUAUCGAGUUCCCAATT against Ceacam20 | inactive: -0.0196
GGUUCUUUUCCUGUUUUACTT against Olfr434 | inactive: 0.161
GGAGAGUUGCCUCAAACAUTT against Ubac1 | inactive: 0.577
GGUGGCAUGUCAUUGCUUCTT against Igf2 | inactive: -0.423
GCAUUGUCAGUCCUACGUGTT against Stac3 | inactive: 1.09
GCCGAUGGAUUCCUCUCAUTT against Rhot1 | inactive: 0.316
GGUGAAAUAGCUAAAUCAUTT against Usp15 | inactive: 0.254

Sequence | z-score
GGGAAAACUACGCAAGAGCTT against Tra2a | inactive: 1.18
GGAUGUUUCGAAUUAAGAGTT against Uqcrb | inactive: 0.0758
GGAAGGAUCAUUCUGUGAATT against Ly6h | inactive: -0.311
GGAACAUGACAGAGAUUUUTT against Adgrb1 | inactive: 0.376
GGCUUUUCUUACAAAGCAATT against Yipf2 | inactive: -0.956
GGAGUUUCAACAAAGAAGCTT against Dock3 | inactive: 0.267
GGAGCUGGACCUGCUGUUATT against Atp6v0e2 | inactive: 1.54
GGACAUGUGAAGAUAAACGTT against Mug1 | inactive: -0.137
CCGGAAAAAGGAUAAGACATT against Rgs6 | inactive: 0.785
GGUCACAAUGAAGGUCAAGTT against Plxdc1 | inactive: -0.66
GGCUUCAAAGGCAAAGUUCTT against Fbf1 | inactive: -1.5
GGAAUUUGAAUCACGUUUGTT against Hprt | inactive: 1.72
GGUGAUGAAACAAAGACAATT against Znrd1as | inactive: -0.266
GGUGCCCAUAAUAGCCAUCTT against Polr2c | inactive: -1.02
GGAAGAAUUCACAAAGAUGTT against Snx6 | inactive: -0.913
GGAACUGAAAAACUCAACUTT against Evi2a | active: -3.13
GGAUUUAGUUCAGAUUUGUTT against Ubp1 | inactive: 0.833
GCUCUCACCCAUGUGACGATT against Micall2 | inactive: 0.607
CGACAAAUAUGAGAGACUCTT against Tsnax | inactive: 0.406
GGUGGACCUGCACUUUACCTT against Fam135b | inactive: 0.67
GCAAUCAUGCCCAAGAAAUTT against Foxn3 | inactive: -0.63
GGUGGUGGGUCCAAUUUUUTT against Jpt1 | inactive: 0.411
GGAGAAAAUGAUAACAUGCTT against Mto1 | inactive: -0.606

Some of the entries above in another layout:
Sequence	z-score
GGAAUUUGAAUCACGUUUGTT against Hprt	inactive: 1.72
GGUGAUGAAACAAAGACAATT against Znrd1as	inactive: -0.266
GGUGCCCAUAAUAGCCAUCTT against Polr2c	inactive: -1.02
GGAAGAAUUCACAAAGAUGTT against Snx6	inactive: -0.913
GGAACUGAAAAACUCAACUTT against Evi2a	active: -3.13
GGAUUUAGUUCAGAUUUGUTT against Ubp1	inactive: 0.833
